From patent publication US20170368235A1, “PHARMACEUTICAL COMPOSITIONS AND DEVICE METHODS FOR TREATMENT OF PROLIFERATIVE DISEASES” (priority 2014, published 2017)
At least one structure is not confirmed: it was looked up by name or label, or the drawing left a doubt.

Test: cumulative drug release from coating applied to a device (FIG. 6)
Assay type: physicochemical
Details: coating with rapamycin:curcumin drug ratio 3 to 1; cumulative release in micrograms versus time

For CO[C@H]1C[C@@H]2CC[C@@H](C)[C@@](O)(O2)C(=O)C(=O)N2CCCC[C@H]2C(=O)O[C@H]([C@H](C)C[C@@H]2CC[C@@H](O)[C@H](OC)C2)CC(=O)[C@H](C)/C=C(\C)[C@@H](O)[C@@H](OC)C(=O)[C@H](C)C[C@H](C)/C=C/C=C/C=C/1C [rapamycin], the “ratio of rapamycin release to the rate of release of curcumin” value was “roughly three”.
